Whole data set: some 33,000 sequences, median “E-score (-0.5 to 0.5)” near -0.015, cut for the highest 2% near 0.3. The list shows a part of the results.
Each sequence was assayed against T1, Abf1 (UniProt P14164) (assay: PBM E-score (8-mer binding enrichment) (E-score (-0.5 to 0.5)); higher = stronger / more preferred TF binding). Details: protein concentration: 200 nM; construct: GST-full length.
T1 sequence: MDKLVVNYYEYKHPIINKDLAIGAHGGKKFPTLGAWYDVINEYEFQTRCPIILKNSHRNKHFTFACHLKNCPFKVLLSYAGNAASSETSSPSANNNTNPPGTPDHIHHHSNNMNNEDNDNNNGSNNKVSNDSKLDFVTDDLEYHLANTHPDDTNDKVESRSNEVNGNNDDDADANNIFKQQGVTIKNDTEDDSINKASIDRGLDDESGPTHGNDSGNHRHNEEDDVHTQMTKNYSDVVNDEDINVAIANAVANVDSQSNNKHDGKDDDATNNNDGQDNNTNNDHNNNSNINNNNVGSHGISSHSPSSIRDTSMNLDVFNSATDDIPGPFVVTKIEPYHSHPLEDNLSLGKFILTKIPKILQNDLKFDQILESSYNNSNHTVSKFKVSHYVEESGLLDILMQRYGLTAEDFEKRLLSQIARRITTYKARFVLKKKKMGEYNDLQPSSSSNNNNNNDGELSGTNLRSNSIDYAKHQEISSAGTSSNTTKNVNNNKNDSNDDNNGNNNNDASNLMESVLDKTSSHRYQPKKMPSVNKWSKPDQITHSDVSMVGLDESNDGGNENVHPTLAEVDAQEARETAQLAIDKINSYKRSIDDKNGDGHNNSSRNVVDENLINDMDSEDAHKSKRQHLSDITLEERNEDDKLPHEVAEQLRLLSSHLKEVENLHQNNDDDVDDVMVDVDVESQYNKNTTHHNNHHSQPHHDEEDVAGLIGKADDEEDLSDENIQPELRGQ
Procedure, shortened: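 PURExpress in vitro transcription/translation supplied GST-tagged yeast transcription factors, either full-length or DNA-binding domain. Applied at about 100-200 nM to universal all-10-mer Agilent arrays double-stranded by primer extension, the bound protein was detected with fluorescent anti-GST. E-scores, modified Wilcoxon-Mann-Whitney statistics, were given by the Universal PBM Analysis Suite to ungapped eight-base words pooled with their reverse complements after masliner normalisation.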

Sequence | PBM E-score
CGATGAAA | 0.0986
AGTAAACG | -0.0721
AGATGCCT | -0.0335
CAAATCAC | 0.19
CATATGGG | -0.0673
GCCGTCCC | 0.0981
CCGATTAA | 0.0259
CCTCGGAC | 0.0883
ACTCGACG | 0.146
GCCTCCGC | -0.157
GTCGCACA | 0.0377
GCGCCAAA | -0.0122
CATTGTCC | -0.0554
ACATCGTC | 0.265
AATACTTC | -0.0521
CGTAACCC | -0.0596
GAGAGGTA | -0.176
CAACTTTC | 0.0128
CGGTGCAG | -0.217
ACCTCTAC | -0.054
GGACCCCA | -0.188
GTTAACAA | 0.0224
CTCTTTGC | -0.061
AACAGTTC | 0.00428
GAAGAGAA | -0.122

Sequence | PBM E-score
ATAGGAGC | -0.122
AATTTCGA | 0.00012
TATCTGAA | -0.101
CTCGACCC | -0.092
AAGACGGA | 0.0735
AAAAACCG | -0.0664
TGCAGGAA | -0.0683
CCTAATTC | -0.0596
ATAGGCTA | -0.0067
CTAGACAC | -0.143
GTAGATTA | 0.201
TATTGGCA | -0.0397
CACTAGGA | -0.075
AAGCACTA | -0.0415
AACTACGA | 0.134
TCGCCCCA | -0.236
GCTCCTTA | -0.0155
CCCGAGCC | -0.299
CTAACACA | 0.113
CCACTACC | -0.14
CCTCCGAC | -0.0947
GGAGCGCC | -0.193
CTATTATA | 0.106
ATGTTAGA | -0.125
AACAGGAA | -0.103

4 entries drawn at random from the list so far, as already listed:
Sequence | PBM E-score
CTCGACCC | -0.092
GGAGCGCC | -0.193
CCTCCGAC | -0.0947
CCCGAGCC | -0.299

Next records.

Sequence | PBM E-score
CCCAAATC | -0.0954
CCAGTCCA | -0.264
CATCTGTC | -0.101
GTTTTAGA | -0.0262
CCTAAAGG | -0.0747
AGCTGCAG | -0.0291
ATCACTCG | 0.31
CCAGGATC | -0.0256
AGCAGGTC | -0.0558
AGACTGCA | -0.203
ATACTGAG | 0.0553
CATGTCAC | 0.383
TCCCCCGA | -0.14
AAAGGTAC | -0.0107
AATCGATG | 0.206
CCAAAATA | 0.0483
ATGCGAAG | 0.0583
CCAGGAGG | -0.0751
CAGGCCAG | -0.0334
GATGGTTA | 0.0953
CAGACAAG | -0.162
AAATCGAA | -0.15
ATCCGAGG | -0.111
AGGTTGCA | 0.0718
ATTAGAAG | -0.098

3 entries from above, reformatted:
Sequence	PBM E-score
AAATCGAA	-0.15
ATCCGAGG	-0.111
AGGTTGCA	0.0718

(continued)

Sequence | PBM E-score
CAACAGAA | -0.152
AAAGGGAA | -0.0729
CTAAATGC | 0.0632
GGGGGAAA | -0.367
CGGGGTTC | -0.126
CAAATACG | 0.164
AACGAATG | 0.188
CAGTATAC | 0.159
GAAAATAC | 0.0265
CGCCGAGC | -0.0933
CCTTGTGC | -0.164
GAGGTTAC | 0.0322
CGTAGACA | 0.00659
TGCCCCAA | 0.0225
ATTCAGCA | 0.0365
GGAGCCCC | -0.293
CAAAGAGC | -0.0636
CTTTTCAA | 0.166
CTGGTGGA | -0.0901
GGCGCCCA | 0.126
CCGTAAAG | 0.14
AAATCATG | 0.215
CCAACGGA | -0.12
ACCGCGTA | -0.0894
AACGATCT | 0.303

Sequence | PBM E-score
GCTACTCA | -0.129
ATACAGGA | 0.0607
AGCGCACT | -0.214
ACCATCGG | -0.177
CTCAACTC | -0.0832
CCGGTCAC | 0.05
AGAAACTC | -0.24
ACTGTTAG | -0.0786
AGTCTACC | -0.19
GCTCCGCC | -0.0741
AGGGACCA | -0.127
GCATAGAC | -0.0323
AGAAACAT | 0.071
ACGTTCGG | -0.0461
GCACGAGC | 0.0977
CGAAGTGA | 0.272
ACAAGTGA | 0.2
CACTAACC | -0.0736
AGGACAGC | -0.118
GACACCCC | -0.211
AGCGCGCC | -0.0977
ATGAGCAA | 0.135
AAGACGAT | 0.237
GCGTACTA | -0.0501
CGCTTAAG | 0.0513

Sequence | PBM E-score
AAACAGAC | -0.0408
GGTGAATA | -0.0317
ACGGACTA | 0.113
CCGTCGCC | -0.0554
ATCTGATC | 0.0914
TAACCGAA | -0.152
AACGTTCA | -0.0413
ATCAAAAT | 0.181
GGTAGGAA | -0.0834
AATACTAA | 0.0807
CCAAGAAA | 0.0959
TGCACGCA | 0.0179
CATGCGTA | 0.0843
AGGGCATC | -0.237
AAGCCGGC | -0.0655
AGCGTATA | 0.0691
ATATACTC | 0.113
CACTATAA | 0.105
CATCCAGG | -0.128
GGAACCAC | -0.209
ACGCAGCT | -0.0811
AGCAATTG | 0.0885
CCAAGGTC | -0.142
GCGGTCTA | -0.0821
CGCTGATC | -0.0665

Sequence | PBM E-score
AAATCCGA | -0.0032
CGTGGTAG | -0.0312
GTGACCTA | 0.212
AGCTCAGG | -0.0864
AGTTTTGG | -0.0612
CCCCATAC | -0.266
CCTTGTAC | 0.0616
CACTCGAG | -0.0424
GATCGATC | -0.238
GATGTGAC | 0.0541
CCTCCTCC | -0.243
CCTGGAGA | 0.0372
GACATGGA | 0.0508
CGGTGGAC | 0.00208
ATGTACCA | 0.0423
GCCAGCCA | -0.194
CAACTACA | 0.0451
CCCTGGGA | -0.248
CCCTGAAG | -0.12
GACTTGAA | -0.0208
TAATGTAA | 0.152
AGCAGCCA | 0.0669

Reference: the supplement of paper PMC3334620
